# Hit rate of the full screen: of about 320,000 compounds, about 22,000 (6.9%) were called active. This list was built around the results that the source calls inconclusive (neither active nor inactive); the mix of calls is not that of the screen. Calls follow the shape of the dose curve; as a rule, active = well fitted inhibition curve with a large enough effect; inconclusive = small, poorly fitted or top-dose-only effect, or another doubt; inactive = no such curve, though single readings can be large or run the other way. Potencies beside an inconclusive call are fits to weak or partial responses and may not hold up.
# Experiment: Primary qHTS for delayed death inhibitors of the malarial parasite plastid, 96 hour incubation
# Conditions: P. falciparum luciferase reporter growth; series mostly up to 28.7 µM
# How it was run: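 Erythrocytes infected with luciferase-expressing P. falciparum were dispensed at 2% hematocrit and 0.05% parasitemia (final), then incubated with compounds 96 hours at 37 C in 5% CO2. Luminescence after detection reagent addition reported growth.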
# % is scaled to controls: 0 for no effect and ±100 for the full control effect; potency is read from the fitted curve at half-maximal effect.
Compound,Potency,"activity change, negative = inhibition"
Cc1ccc(C(=O)C(OC(=O)COc2ccccc2C)c2ccccc2)cc1 (centres undefined),inactive,
N#Cc1ccccc1S(=O)(=O)N1CCN(C(=O)CN2CCCSc3ccccc32)CC1,"inconclusive: 18.5 µM [inhibitor, single point]",
CCOc1ccc(C(CC(=O)O)NC(=O)c2cccs2)cc1OC (centres undefined),inactive,
O=C1N/C(=N\N=C\c2ccccn2)SC1Cc1cccc(SC(F)F)c1 (centres undefined),"inconclusive: 1.65 µM [inhibitor, full curve]",
C/C(=N/NS(=O)(=O)c1ccc(C)cc1)c1ccc(NC(=O)C(F)(F)F)cc1,"inconclusive: 2.94 µM [inhibitor, single point]",
CCCNC(=S)N(Cc1ccccc1)Cc1nc2ccccc2c(=O)[nH]1,"inconclusive: 3.29 µM [inhibitor, partial curve, poor fit]",
CCc1ccccc1NC(=O)N1CCC(NC(=O)C(Cc2ccc(OC)c(OC)c2)NC(C)=O)CC1 (centres undefined),active: 11.7 µM,
O=C(c1ccc(Cl)c(Cl)c1)N(Cc1ccco1)c1ccc(O)cc1,"inconclusive: 11.7 µM [inhibitor, partial curve, poor fit]",
OC(CCCN1CCC(O)(c2ccc(Cl)cc2)CC1)c1ccc(F)cc1 (centres undefined),"inconclusive: 18.5 µM [inhibitor, single point]",
CCOC(=O)c1sc(NC(=O)COC(=O)CNC(=O)c2ccco2)c(C(=O)OCC)c1C,"inconclusive: 18.5 µM [inhibitor, single point]",
O=C(Cc1ccc(S(=O)(=O)N2CCOCC2)s1)OCc1ccc(Cl)cc1,"inconclusive: 0.415 µM [inhibitor, full curve, poor fit]",
Cc1ccc(N=Nc2c(N)[nH]n3c(=O)cc(-c4ccccc4)nc23)cc1,"inconclusive: 0.0033 µM [inhibitor, full curve, poor fit]",
Cc1ccc(NC(=O)C2CCCN(S(=O)(=O)c3ccc4[nH]c(=O)ccc4c3)C2)nc1 (centres undefined),"inconclusive: 13.1 µM [inhibitor, partial curve, poor fit]",
CN(C(=O)COC(=O)CCC1CCCCC1)c1c(N)n(Cc2ccccc2)c(=O)[nH]c1=O,inactive,
COC(=O)c1ccc(NC(=O)CCOc2ccccc2)cc1,,inactive: -3.49% [at 5.75 µM]
COc1ccc(C(O)P(=O)(OC(C)C)OC(C)C)c(OC)c1 (centres undefined),inactive,
Cc1cccc(Nc2nc(N)nc(-c3oc4ccccc4c3C)n2)c1,inactive,
CC(=O)N1CCC(=NNc2nc3ccccc3[nH]2)CC1,"inconclusive: 0.0738 µM [inhibitor, full curve, poor fit]",
O=c1ccc(-c2ccc(S(=O)(=O)N3CCN(c4cccc(Cl)c4)CC3)o2)n[nH]1,"inconclusive: 9.28 µM [inhibitor, partial curve, poor fit]",

# Quoted at random: 2 records from the list, in no set order.
Compound,Potency,"activity change, negative = inhibition"
O=c1ccc(-c2ccc(S(=O)(=O)N3CCN(c4cccc(Cl)c4)CC3)o2)n[nH]1,"inconclusive: 9.28 µM [inhibitor, partial curve, poor fit]",
Cc1ccc(C(=O)C(OC(=O)COc2ccccc2C)c2ccccc2)cc1 (centres undefined),inactive,
